Results deposited as PubChem BioAssay AID1224830 (NIAID, 2016).

Assay: 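Regulators of TLR4 signalling towards TNF-alpha in macrophage-like cells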 (primary screen)
System: human THP-1 monocytic leukaemia cells, TNF dual-luciferase reporter clone, PMA-differentiated to macrophage-like cells
Knock-down reagent: siRNA pool against human genes, 50 nM
Timing: LPS for 4 h, given about 3 days after siRNA transfection
Conditions: bacterial LPS (TLR4 ligand), 10 ng/ml
Detection: 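Ratio of firefly to renilla light, scaled to the plate median and expressed as a robust z-score per replicate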
Scale: TNF reporter robust z-score: higher = stronger TNF reporter response to LPS
Call rule: 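a well is active when its z-score exceeds 2.8 or falls below -1.5; control wells carry no call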
This is one part, drawn at random, of about 18,000 reagents. Over the whole deposit, about 2,900 (16%) were called active. 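Calls are made per well; low scores hint the gene aids the LPS response, high scores that it dampens it.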 Repeated entries: four replicate wells of each siRNA pool.

no.	gene	PubChem SID	TNF reporter robust z-score	call
1	PPP1R3B	SID315459362	-0.48	inactive
2	PPP1R3B	SID315459362	1.06	inactive
3	PPP1R3B	SID315459362	1.82	inactive
4	PPP1R3B	SID315459362	2.45	inactive
5	DKC1	SID315448313	0.88	inactive
6	DKC1	SID315448313	0.57	inactive
7	DKC1	SID315448313	-0.14	inactive
8	DKC1	SID315448313	1.33	inactive
9	ACLY	SID315447150	-0.4	inactive
10	ACLY	SID315447150	-0.71	inactive
11	ACLY	SID315447150	-0.66	inactive
12	ACLY	SID315447150	-0.93	inactive
13	GABARAP	SID315454769	-0.21	inactive
14	GABARAP	SID315454769	3.97	active
15	GABARAP	SID315454769	0.69	inactive
16	GABARAP	SID315454769	2	inactive
17	OR6B1	SID315462002	1.55	inactive
18	OR6B1	SID315462002	1.45	inactive
19	OR6B1	SID315462002	2.41	inactive
20	OR6B1	SID315462002	-1.25	inactive
21	LRIF1	SID315457861	-1.23	inactive
22	LRIF1	SID315457861	-0.82	inactive
23	LRIF1	SID315457861	-1.46	inactive
24	LRIF1	SID315457861	-1.4	inactive
25	NALF1	SID315465187	0.37	inactive
26	NALF1	SID315465187	0.33	inactive
27	NALF1	SID315465187	-0.13	inactive
28	NALF1	SID315465187	-0.3	inactive
29	FSHB	SID315448761	0.58	inactive
30	FSHB	SID315448761	-0.33	inactive
31	FSHB	SID315448761	0.05	inactive
32	FSHB	SID315448761	-0.04	inactive
33	ARR3	SID315447410	1.71	inactive
34	ARR3	SID315447410	1.54	inactive
35	ARR3	SID315447410	1.8	inactive
36	ARR3	SID315447410	0.31	inactive
37	BAIAP2L1	SID315457968	0.39	inactive
38	BAIAP2L1	SID315457968	1.04	inactive
39	BAIAP2L1	SID315457968	1.21	inactive
40	BAIAP2L1	SID315457968	0.72	inactive
41	RIPPLY2	SID315461978	0.85	inactive
42	RIPPLY2	SID315461978	1.12	inactive
43	RIPPLY2	SID315461978	1.52	inactive
44	RIPPLY2	SID315461978	1.75	inactive
45	CIB1	SID315454155	-0.07	inactive
46	CIB1	SID315454155	1.99	inactive
47	CIB1	SID315454155	0.64	inactive
48	CIB1	SID315454155	0.74	inactive
49	COPA	SID315448039	-0.53	inactive
50	COPA	SID315448039	-0.18	inactive
51	COPA	SID315448039	-0.52	inactive
52	COPA	SID315448039	0.46	inactive
53	RREB1	SID315451250	-1.4	inactive
54	RREB1	SID315451250	-0.95	inactive
55	RREB1	SID315451250	-0.55	inactive
56	RREB1	SID315451250	-1.78	active
57	MYH7	SID315450109	0.53	inactive
58	MYH7	SID315450109	1.75	inactive
59	MYH7	SID315450109	0.86	inactive
60	MYH7	SID315450109	2.42	inactive
61	CYP3A5	SID315448216	-1.4	inactive
62	CYP3A5	SID315448216	-1.02	inactive
63	CYP3A5	SID315448216	-1.19	inactive
64	DUS3L	SID315458171	4.55	active
65	DUS3L	SID315458171	2.95	active
66	DUS3L	SID315458171	3.78	active
67	DUS3L	SID315458171	1.06	inactive
68	SLC35E3	SID315457657	-0.87	inactive
69	SLC35E3	SID315457657	-0.84	inactive
70	SLC35E3	SID315457657	-0.24	inactive
71	SLC35E3	SID315457657	-0.8	inactive
72	GPR176	SID315454713	1.87	inactive
73	GPR176	SID315454713	0.66	inactive
74	GPR176	SID315454713	-0.24	inactive
75	GPR176	SID315454713	-0.29	inactive
76	DRC12	SID315463638	0.4	inactive
77	DRC12	SID315463638	2.89	active
78	DRC12	SID315463638	0.78	inactive
79	DRC12	SID315463638	1.84	inactive
80	XTBD1	SID315460904	1.17	inactive
81	XTBD1	SID315460904	1.23	inactive
82	XTBD1	SID315460904	1.98	inactive
83	XTBD1	SID315460904	1.73	inactive
84	SLC10A1	SID315451489	0.5	inactive
85	SLC10A1	SID315451489	-0.81	inactive
86	SLC10A1	SID315451489	0.96	inactive
87	SLC10A1	SID315451489	0.67	inactive
88	MORF4	SID315454467	-0.06	inactive
89	MORF4	SID315454467	-0.37	inactive
90	MORF4	SID315454467	-1.19	inactive
91	MORF4	SID315454467	0.14	inactive
92	AKAP4	SID315452875	1.37	inactive
93	AKAP4	SID315452875	1.88	inactive
94	AKAP4	SID315452875	2.47	inactive
95	AKAP4	SID315452875	-0.76	inactive
96	MRPS26	SID315459052	-1.08	inactive
97	MRPS26	SID315459052	-0.85	inactive
98	MRPS26	SID315459052	-0.82	inactive
99	MRPS26	SID315459052	-0.74	inactive
100	TMEM223	SID315459186	0.09	inactive
101	TMEM223	SID315459186	1.47	inactive
102	TMEM223	SID315459186	0.82	inactive
103	TMEM223	SID315459186	0.75	inactive
104	CEP95	SID315460858	2.12	inactive
105	CEP95	SID315460858	0.89	inactive
106	CEP95	SID315460858	1.7	inactive
107	CEP95	SID315460858	1.38	inactive
108	TIMM44	SID315454115	-1.14	inactive
109	TIMM44	SID315454115	0.15	inactive
110	TIMM44	SID315454115	-0.67	inactive
111	TIMM44	SID315454115	1.2	inactive
112	PLEKHG1	SID315458410	-0.43	inactive
113	PLEKHG1	SID315458410	-0.23	inactive
114	PLEKHG1	SID315458410	-1	inactive
115	PLEKHG1	SID315458410	-0.79	inactive
116	CCN5	SID315452865	-0.9	inactive
117	CCN5	SID315452865	-0.51	inactive
118	CCN5	SID315452865	-0.69	inactive
119	CCN5	SID315452865	-0.53	inactive
120	NOSIP	SID315456441	-0.83	inactive
121	NOSIP	SID315456441	-1.91	active
122	NOSIP	SID315456441	-1.78	active
123	NOSIP	SID315456441	0.33	inactive
124	MSANTD4	SID315460358	0.4	inactive
125	MSANTD4	SID315460358	-1.07	inactive
126	MSANTD4	SID315460358	-0.73	inactive
127	MSANTD4	SID315460358	1.43	inactive
128	CDH7	SID315447832	0.54	inactive
129	CDH7	SID315447832	1.32	inactive
130	CDH7	SID315447832	1.08	inactive
131	CDH7	SID315447832	0.8	inactive
132	SGMS2	SID315462847	0.51	inactive
133	SGMS2	SID315462847	1.21	inactive
134	SGMS2	SID315462847	1.13	inactive
135	SGMS2	SID315462847	-0.04	inactive
136	C3	SID315447612	1.57	inactive
137	C3	SID315447612	2.55	inactive
138	C3	SID315447612	1.76	inactive
139	C3	SID315447612	1.15	inactive
140	S1PR5	SID315456926	-1.44	inactive
141	S1PR5	SID315456926	-0.9	inactive
142	S1PR5	SID315456926	-0.28	inactive
143	S1PR5	SID315456926	0.12	inactive

Entries above whose target name starts with A or a:
gene	PubChem SID	TNF reporter robust z-score	call
ACLY	SID315447150	-0.4	inactive
ACLY	SID315447150	-0.71	inactive
ACLY	SID315447150	-0.66	inactive
ACLY	SID315447150	-0.93	inactive
ARR3	SID315447410	1.71	inactive
ARR3	SID315447410	1.54	inactive
ARR3	SID315447410	1.8	inactive
ARR3	SID315447410	0.31	inactive
AKAP4	SID315452875	1.37	inactive
AKAP4	SID315452875	1.88	inactive
AKAP4	SID315452875	2.47	inactive
AKAP4	SID315452875	-0.76	inactive
